The values below come from patent publication US20130302322A1.

The chains behind the UniProt entries cited, without tags or fusion partners. Where a name states a change or a piece, a line headed by the entry shows the natural chain unless it says otherwise.
UniProt P07333: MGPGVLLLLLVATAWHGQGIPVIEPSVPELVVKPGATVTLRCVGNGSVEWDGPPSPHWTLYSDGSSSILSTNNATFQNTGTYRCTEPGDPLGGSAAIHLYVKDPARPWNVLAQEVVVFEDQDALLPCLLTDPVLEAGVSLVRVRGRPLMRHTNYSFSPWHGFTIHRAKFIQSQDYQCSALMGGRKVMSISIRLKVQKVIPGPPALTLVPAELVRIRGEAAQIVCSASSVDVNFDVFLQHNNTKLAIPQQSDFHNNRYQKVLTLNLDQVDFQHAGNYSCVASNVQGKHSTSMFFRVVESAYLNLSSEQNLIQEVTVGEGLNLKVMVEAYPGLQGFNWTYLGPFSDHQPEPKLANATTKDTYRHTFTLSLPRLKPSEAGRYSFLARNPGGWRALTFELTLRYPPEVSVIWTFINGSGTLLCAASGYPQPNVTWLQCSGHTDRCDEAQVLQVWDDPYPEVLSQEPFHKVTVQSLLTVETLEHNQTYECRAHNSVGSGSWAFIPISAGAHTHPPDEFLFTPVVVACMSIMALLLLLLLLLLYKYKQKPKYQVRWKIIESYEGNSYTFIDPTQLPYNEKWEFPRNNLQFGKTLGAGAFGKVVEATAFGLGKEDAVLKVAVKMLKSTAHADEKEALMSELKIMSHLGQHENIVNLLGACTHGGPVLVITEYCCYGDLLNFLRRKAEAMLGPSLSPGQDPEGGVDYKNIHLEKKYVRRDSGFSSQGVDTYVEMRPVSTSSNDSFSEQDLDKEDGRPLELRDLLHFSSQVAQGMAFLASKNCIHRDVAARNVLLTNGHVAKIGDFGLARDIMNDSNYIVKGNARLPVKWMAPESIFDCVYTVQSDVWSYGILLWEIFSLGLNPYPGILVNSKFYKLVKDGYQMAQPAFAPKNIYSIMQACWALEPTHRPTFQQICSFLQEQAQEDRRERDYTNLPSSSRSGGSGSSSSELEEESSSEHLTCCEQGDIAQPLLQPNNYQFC

No constants are given. Whether binding was seen depends on the method and setting. Some binding calls cover weakened binding; strength is not graded here.

This assay deals with human CSF1R ECD (human) (UniProt P07333). Kind of assay: binding test on CSF1R ECD; done previously (WO 2011/140249).

B1: huAb7 (antibody, human IgG4 S228P, kappa, V domains shown)
VH: QVQLVQSGAEVKKPGSSVKVSCKASGYTFSDFNIHWVRQAPGQGLEWMGYINPYTDVTVYNEKFKGRVTITSDKSTSTAYMELSSLRSEDTAVYYCASYFDGTFDYALDYWGQGTLVTVSS
VL: EIVLTQSPATLSLSPGERATLSCRASESVDNYGLSFMNWYQQKPGQAPRLLIYTASNLESGIPARFSGSGSGTDFTLTISSLEPEDFAVYYCQQSKELPWTFGQGTKVEIKR
With B1, the binding result is “binds”.

B2: huAb15 (antibody, human IgG4 S228P, kappa, V domains shown)
VH: QVQLVQSGAEVKKPGSSVKVSCKASGYIFTDYNMHWVRQAPGQGLEWMGEINPNNGVVVYNQKFKGTTTLTVDKSTSTAYMELSSLRSEDTAVYYCTRALYHSNFGWYFDSWGQGTLVTVSS
VL: EIVLTQSPATLSLSPGERATLSCKASQSVDYDGDSHMNWYQQKPGQAPRLLIYTASNLESGIPARFSGSGSGTDFTLTISSLEPEDFAVYYCQQGNEDPWTFGQGTKVEIKR
Regarding B2, the binding result is on record as “binds”.

B3: huAb11 (antibody, human IgG4 S228P, kappa, V domains shown)
VH: QVQLVQSGAEVKKPGSSVKVSCKASGYTFSDFNIHWVRQAPGQGLEWIGYINPYTDVTVYNEKFKGRATLTSDKSTSTAYMELSSLRSEDTAVYYCASYFDGTFDYALDYWGQGTLVTVSS
VL: EIVLTQSPATLSLSPGERATLSCRASESVDNYGLSFMNWYQQKPGQAPRLLIYTASNLESGIPARFSGSGSRTDFTLTISSLEPEDFAVYYCQQSKELPWTFGQGTKVEIKR
B3: the binding entry is listed as “binds”.

B4: huAb13 (antibody, human IgG4 S228P, kappa, V domains shown)
VH: QVQLVQSGAEVKKPGSSVKVSCKASGYIFTDYNMHWVRQAPGQGLEWMGEINPNNGVVVYNQKFKGRVTITVDKSTSTAYMELSSLRSEDTAVYYCTRALYHSNFGWYFDSWGQGTLVTVSS
VL: EIVLTQSPATLSLSPGERATLSCKASQSVDYDGDSHMNWYQQKPGQAPRLLIYTASNLESGIPARFSGSGSGTDFTLTISSLEPEDFAVYYCQQGNEDPWTFGQGTKVEIKR
Take B4: the binding result was “binds”.

B5: huAb12 (antibody, human IgG4 S228P, kappa, V domains shown)
VH: QVQLVQSGAEVKKPGSSVKVSCKASGYTFSDFNIHWVRQAPGQGLEWIGYINPYTDVTVYNEKFKGRATLTSDKSTSTAYMELSSLRSEDTAVYYCASYFDGTFDYALDYWGQGTLVTVSS
VL: EIVVTQSPATLSLSPGERATLSCRASESVDNYGLSFMNWFQQKPGQAPRLLIYTASNLESGIPARFSGSGSRTDFTLTISSLEPEDFAVYYCQQSKELPWTFGQGTKVEIKR
B5: the binding result is “binds”.

B6: huAb10 (antibody, human IgG4 S228P, kappa, V domains shown)
VH: QVQLVQSGAEVKKPGSSVKVSCKASGYTFSDFNIHWVRQAPGQGLEWIGYINPYTDVTVYNEKFKGRATLTSDKSTSTAYMELSSLRSEDTAVYYCASYFDGTFDYALDYWGQGTLVTVSS
VL: EIVLTQSPATLSLSPGERATLSCRASESVDNYGLSFMNWYQQKPGQAPRLLIYTASNLESGIPARFSGSGSGTDFTLTISSLEPEDFAVYYCQQSKELPWTFGQGTKVEIKR
Take B6: the binding entry is “binds”.

B7: huAb9 (antibody, human IgG4 S228P, kappa, V domains shown)
VH: QVQLVQSGAEVKKPGSSVKVSCKASGYTFSDFNIHWVRQAPGQGLEWMGYINPYTDVTVYNEKFKGRVTITSDKSTSTAYMELSSLRSEDTAVYYCASYFDGTFDYALDYWGQGTLVTVSS
VL: EIVVTQSPATLSLSPGERATLSCRASESVDNYGLSFMNWFQQKPGQAPRLLIYTASNLESGIPARFSGSGSRTDFTLTISSLEPEDFAVYYCQQSKELPWTFGQGTKVEIKR
As for B7, the binding result is given as “binds”.

B8: huAb8 (antibody, human IgG4 S228P, kappa, V domains shown)
VH: QVQLVQSGAEVKKPGSSVKVSCKASGYTFSDFNIHWVRQAPGQGLEWMGYINPYTDVTVYNEKFKGRVTITSDKSTSTAYMELSSLRSEDTAVYYCASYFDGTFDYALDYWGQGTLVTVSS
VL: EIVLTQSPATLSLSPGERATLSCRASESVDNYGLSFMNWYQQKPGQAPRLLIYTASNLESGIPARFSGSGSRTDFTLTISSLEPEDFAVYYCQQSKELPWTFGQGTKVEIKR
For B8, the binding entry is listed as “binds”.

B9: huAb14 (antibody, human IgG4 S228P, kappa, V domains shown)
VH: QVQLVQSGAEVKKPGSSVKVSCKASGYIFTDYNMHWVRQAPGQGLEWMGEINPNNGVVVYNQKFKGRVTITVDKSTSTAYMELSSLRSEDTAVYYCTRALYHSNFGWYFDSWGQGTLVTVSS
VL: DIVLTQSPATLSLSPGERATLSCKASQSVDYDGDSHMNWYQQKPGQAPRLLIYTASNLESGIPARFSGSGSGADFTLTISSLEPEDFAVYYCQQGNEDPWTFGQGTKVEIKR
Regarding B9, the binding entry was “binds”.

B10: huAb16 (antibody, human IgG4 S228P, kappa, V domains shown)
VH: QVQLVQSGAEVKKPGSSVKVSCKASGYIFTDYNMHWVRQAPGQGLEWMGEINPNNGVVVYNQKFKGTTTLTVDKSTSTAYMELSSLRSEDTAVYYCTRALYHSNFGWYFDSWGQGTLVTVSS
VL: DIVLTQSPATLSLSPGERATLSCKASQSVDYDGDSHMNWYQQKPGQAPRLLIYTASNLESGIPARFSGSGSGADFTLTISSLEPEDFAVYYCQQGNEDPWTFGQGTKVEIKR
As to B10, the binding result is recorded as “binds”.
